Values from PubChem BioAssay AID652243 (Drosophila RNAi Screening Center, 2013)
The screen tested about 24,000 reagents; below is an unselected part of those that have a named target and a result. In the full data, 246 (1%) got an active call. 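Plates not normalised; calls are printed but the firefly/Renilla ratio behind them is not deposited; fold cut for lowering reported inconsistently.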 The raw values are shown without normalisation. Entries without a mark were called inactive. Not stated in the record: the amount of reagent.

- Screen: 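Fly genes required for human androgen receptor driven transcription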 (primary screen)
- Cell system: Drosophila S2R+ cells
- Reagents: long dsRNA against Drosophila genes
- Time to read-out: 72 h (48 h, then 24 h hormone)
- Conditions: synthetic androgen R1881 at 10 nM for 24 h
- Read-out: 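Per-well raw luminescence of the androgen-driven firefly reporter and of the Renilla control, two replicates each, without normalisation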
- Reading the numbers: firefly reporter light: higher = more light from androgen-responsive reporter; Renilla control light: higher = more constitutive control signal (cell number, transfection)
- Active means: 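Hit when the log firefly-to-Renilla ratio dropped or increased by a fixed fold versus the mean of GFP or LacZ controls across duplicate plates; lowering cut given as 1.5 and as 3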
- Calls: active = hit: reporter lowered or raised; inactive = no hit

Gene	PubChem SID	firefly reporter light, replicate 1	firefly reporter light, replicate 2	Renilla control light, replicate 1	Renilla control light, replicate 2
CG7275	SID104190588	1.04e6	9.54e5	1.77e6	1.97e6
CG14742	SID104194754	2.63e5	2.40e5	2.46e6	2.19e6
br	SID104197483	2.38e5	3.17e5	5.78e5	3.67e5
br	SID104197581	3.74e5	3.57e5	4.85e6	3.89e6
br	SID104204309	4.00e5	3.21e5	7.95e5	5.44e5
dpr18	SID104199398	8.52e5	7.03e5	3.40e6	2.61e6
CG14142	SID104189937	2.05e5	1.65e5	1.37e6	1.23e6
CG14142	SID104205202	2.29e5	2.56e5	5.76e5	4.75e5
Pss	SID104191549	2.66e5	2.03e5	2.18e6	2.82e6
en	SID104187401	3.26e5	2.41e5	1.54e6	1.21e6
en	SID104204172	5.30e5	3.49e5	6.61e5	5.33e5
Ptth	SID104180148	1.18e5	99312	6.30e5	7.78e5
RfC4	SID104188483	9.40e5	6.05e5	1.67e6	1.88e6
RfC4	SID104208066	8.07e5	6.36e5	1.29e6	1.29e6
Cyp6a14	SID104187168	1.15e5	1.21e5	1.09e6	9.33e5
Cyp6a14	SID104203349	4.01e5	2.66e5	5.98e5	5.34e5
CG13965	SID104182099	1.67e5	1.12e5	1.05e6	1.34e6
CG8560	SID104190786	1.37e6	7.76e5	1.70e6	8.26e5
CG8560	SID104202917	9.03e5	8.95e5	1.13e6	1.05e6
wac	SID104188141	64137	1.52e5	8.18e5	1.91e6
wac	SID104207517	5.06e5	3.89e5	1.47e6	1.15e6
Prx1	SID104190533	1.51e5	1.58e5	1.28e6	1.74e6
Prx1	SID104203171	5.78e5	7.65e5	8.48e5	1.09e6

4 entries from above, set out differently:
| Gene | PubChem SID | firefly reporter light, replicate 1 | firefly reporter light, replicate 2 | Renilla control light, replicate 1 | Renilla control light, replicate 2 |
| --- | --- | --- | --- | --- | --- |
| Pss | SID104191549 | 2.66e5 | 2.03e5 | 2.18e6 | 2.82e6 |
| en | SID104187401 | 3.26e5 | 2.41e5 | 1.54e6 | 1.21e6 |
| en | SID104204172 | 5.30e5 | 3.49e5 | 6.61e5 | 5.33e5 |
| Ptth | SID104180148 | 1.18e5 | 99312 | 6.30e5 | 7.78e5 |

Next records follow:
Gene	PubChem SID	firefly reporter light, replicate 1	firefly reporter light, replicate 2	Renilla control light, replicate 1	Renilla control light, replicate 2
FoxL1	SID104188509	82839	1.32e5	1.24e6	1.70e6
FoxL1	SID104203811	5.83e5	2.95e5	6.36e5	5.51e5
Coq7	SID104207591	1.49e6	1.01e6	1.44e6	1.13e6
CG5107	SID104195508	91697	81581	3.42e5	5.82e5
CG17597	SID104182422	8.98e5	9.10e5	1.45e6	1.82e6
CG17597	SID104203398	9.78e5	1.07e6	6.98e5	7.08e5
Cpr78Cc	SID104191638	3.17e5	2.42e5	1.73e6	1.74e6
hppy	SID104186806	1.34e5	1.26e5	1.39e6	1.76e6
hppy	SID104186807	1.09e5	1.95e5	1.83e6	2.17e6
hppy	SID104186808	76478	65037	7.57e5	9.22e5
hppy	SID104206712	5.38e5	4.21e5	1.27e6	1.39e6
Zw10	SID104198585	1.44e5	68567	6.91e5	5.33e5
Zw10	SID104204164	5.64e5	6.27e5	4.16e5	3.61e5
CG31103	SID104201825	7.63e5	7.04e5	2.63e6	2.16e6
Sol1	SID104195055	3.13e5	2.23e5	2.78e6	2.50e6
Sol1	SID104195063	95464	93144	1.36e6	1.59e6
Sol1	SID104195473	1.61e5	2.11e5	3.17e6	3.39e6
